Library screen at single concentrations

Data taken from ChEMBL document CHEMBL3988442, “University of Dundee, Small-Polar-MMV Screening Library” (2021).

Values are the deposited “Percent Effect”, in %.
The controls that fix the scale are not given in the record; negative values are as filed.
This is an unselected part of the compounds tested.
Two or more numbers in one place are separate tests of the same structure; such repeats can differ widely.

A: 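Whole-parasite assay of Trypanosoma brucei over 72 hours; the read-out is not stated. Concentration: 30 µM. Direction is inferred from retests: higher values go with stronger inhibition. Values scatter widely below zero; nearly all retest evidence comes from the higher of the two concentrations used. Size under these conditions: about 64,000 compounds, about 940 of them at 50% or above in at least one test.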
B: 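Assay of Toxoplasma gondii numbers, read through their beta-galactosidase reporter with a colour substrate. Concentration: 10 µM. Higher reads as fewer parasites (inferred from which compounds were picked for retests). About 67,000 compounds were tested under these conditions; 0.38% (about 260) showed 50% or more at least once.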
C: 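Cell assay of Leishmania donovani living inside macrophages; the read-out is not stated. Concentration: 30 µM. Direction is inferred from retests: higher values go with stronger inhibition. Of about 69,000 compounds tested this way, about 1,000 (1.5%) reached 50% or more in at least one test.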

* Cn1nc(C(=O)NCc2cccnc2)c2c1CCS(=O)(=O)C2 : A: -19.1%; B: 0.7407%; C: -28.57%
* CN(C)c1cc(C(=O)N2CCCC2c2cnn(C)c2)ccn1 (configuration not stated) : A: -5.99%; B: 22.65%; C: -29.71%
* COCCN(C)C(=O)c1ccccc1-n1cc(CN(C)C)cn1 : A: -0.8735%; B: -15.06%; C: 9.922% & 26.95%
* O=c1ccc(-n2ccnc2)nn1CCNS(=O)(=O)c1ccc(F)c(Cl)c1 : A: 9.02%; B: 2.188%; C: 1.235% & 0.8015%
* Cc1ccc(N2CCCC(NCc3ccccn3)C2)nn1 (configuration not stated) : A: -2.608%; B: -24.29%; C: 10.92%
* COc1ccc(OC2CCN(C(=O)[C@@H](N)Cc3c[nH]cn3)CC2)cc1 : A: -32.1%; B: 0.6664%; C: 0.6193%
* Cc1ccc(-c2cc(-c3c(C)nn(CCO)c3C)c(C#N)c(N)n2)cc1 : A: 33.48%; B: 10.85%; C: 30.9%
* Cc1ccc(S(=O)(=O)c2ncccc2CN2CCCC2)cc1 : A: -35.33%; B: -22.59%; C: 10.67%
* Cc1n[nH]c2c1C(c1ccc(F)cc1)SCC(=O)N2 (configuration not stated) : A: -2.434%; B: 2.695%; C: 19.81%
* COc1ccc2c(c1)CN(c1nc(C)cc(C)n1)CC2 : A: 100.3%; B: -1.124%; C: 98.91%
* COc1ncccc1CNC(=O)c1c[nH]c(=O)c(Br)c1 : A: -12.49%; B: -11.42%; C: 33.92%
* CC(C)NC(=O)N1CCc2c(CNc3ncccn3)cncc2C1.Cl : A: -16.68%; B: 7.211%; C: 13.5%
* CC(=O)Nc1nc(C(=O)NC(C)c2ccncc2)cs1 (configuration not stated) : A: -1.463%; B: 1.042%; C: -4.975%
* O=C(O)c1ccc(F)c(S(=O)(=O)N2CCOc3ccccc32)c1 : A: -2.935%; B: -17.53%; C: 5.786%
* O=C(Cc1ccc2c(c1)CCO2)N1CCCC(n2cccn2)C1 (configuration not stated) : A: 7.855%; B: -1.969%; C: 14.43%
* CC(C)N1CCC(c2cc(C(F)(F)F)n3ccnc3n2)CC1 : A: -41.36%; B: -3.821%; C: -3.747% & 8.138%
* CCOC(=O)CNC(=O)NCc1cccn1Cc1cccc(C)c1 : A: 3.426%; B: 12.01%; C: -33.71% & 14.73%
* CC(C)=CCN1CCOC(Cn2cccn2)C1 (configuration not stated) : B: 8.982%; C: -14.14%
* CCOc1cc2c(cc1CNC(Cc1cccs1)c1nccs1)OCO2.Cl (configuration not stated) : A: -21.18%; B: -15.1%; C: 32.16%
* CC(C)Oc1ccccc1-c1cc(CN)ccc1F : A: 7.78%; B: -2.678%; C: -19.57%
* COc1cccc(CNc2nc(C)cc(C)n2)c1OC : A: -10.96%; B: 5.363%; C: 19.81%
* CN(C)[C@@H]1CN(Cc2ccccn2)C[C@H]1c1cn(C)c2ccccc12.Cl : A: 22.59%; B: -30.76%; C: 2.116%
* O=C(O)C(F)(F)F.O=C(O)C(F)(F)F.[H][C@@]12CC(COc3ccccn3)C[C@@]1([H])N(Cc1cccc(C)n1)CCO2 (some centres not stated) : A: -29.04%; B: -10.54%; C: 12.15%

Once more, the final 2:

compound	A	B	C
CN(C)[C@@H]1CN(Cc2ccccn2)C[C@H]1c1cn(C)c2ccccc12.Cl	22.59%	-30.76%	2.116%
O=C(O)C(F)(F)F.O=C(O)C(F)(F)F.[H][C@@]12CC(COc3ccccn3)C[C@@]1([H])N(Cc1cccc(C)n1)CCO2 (some centres not stated)	-29.04%	-10.54%	12.15%